PubChem BioAssay AID1224830 – NIAID – 2016

Screen: 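Regulators of TLR4 signalling towards TNF-alpha in macrophage-like cells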 (primary screen)
System: human THP-1 monocytic leukaemia cells, TNF dual-luciferase reporter clone, PMA-differentiated to macrophage-like cells
Reagent: siRNA pool against human genes, 50 nM
Time to read-out: LPS for 4 h, given about 3 days after siRNA transfection
Challenge: bacterial LPS (TLR4 ligand), 10 ng/ml
Measured: 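TNF firefly reporter luminescence divided by renilla, normalised to the plate median, then turned into a robust z-score for each replicate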
Scale: TNF reporter robust z-score: higher = stronger TNF reporter response to LPS
Active means: 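Each well counts as active if its z-score is over 2.8 or under -1.5; controls are left without a call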
Shown is a random part of about 18,000 reagents. Over the whole deposit, about 2,900 (16%) were called active. 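Calls are made per well; low scores hint the gene aids the LPS response, high scores that it dampens it.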 A number with no mark means an inactive call. Repeated entries: four replicate wells of each siRNA pool.

no.	Target gene	TNF reporter robust z-score
1	SPMAP1	0.06
2	SPMAP1	0.63
3	SPMAP1	1.16
4	SPMAP1	0.6
5	HAP1	0.86
6	HAP1	0.51
7	HAP1	0.72
8	HAP1	0.41
9	EGR2	-1.5
10	EGR2	-1.49
11	EGR2	-1.97 (active)
12	EGR2	-0.86
13	FAM76A	-0.49
14	FAM76A	-0.74
15	FAM76A	-0.42
16	FAM76A	-0.15
17	NSUN3	-1.85 (active)
18	NSUN3	-1.49
19	NSUN3	-0.94
20	NSUN3	-0.89
21	LIMK2	-0.27
22	LIMK2	-0.73
23	LIMK2	-0.59
24	LIMK2	0.59
25	KLF12	3.31 (active)
26	KLF12	5.09 (active)
27	KLF12	2.19
28	KLF12	3.16 (active)
29	RPL7A	1.34
30	RPL7A	0.95
31	RPL7A	0.25
32	RPL7A	-0.14
33	MKRN1	-0.87
34	MKRN1	1.02
35	MKRN1	0.95
36	MKRN1	-0.47
37	MYO7A	-0.74
38	MYO7A	-0.3
39	MYO7A	-0.76
40	MYO7A	-0.57
41	PRP4K	0.35
42	PRP4K	0.24
43	PRP4K	1.87
44	PRP4K	2.21
45	MBD3L2	0.51
46	MBD3L2	0.36
47	MBD3L2	2.21
48	MBD3L2	1.49
49	RAB32	-0.04
50	RAB32	0.24
51	RAB32	2.45
52	RAB32	0.23
53	ST3GAL1	-0.13
54	ST3GAL1	1.45
55	ST3GAL1	-0.02
56	ST3GAL1	0.63
57	BCAN	3.43 (active)
58	BCAN	1.67
59	BCAN	-0.62
60	BCAN	0.39
61	CALM1	-0.33
62	CALM1	-0.39
63	CALM1	-0.57
64	CALM1	-1.08
65	TGIF1	0.45
66	TGIF1	0.44
67	TGIF1	-0.27
68	TGIF1	1.57
69	CALCRL	2.1
70	CALCRL	1.16
71	CALCRL	0.46
72	CALCRL	3.73 (active)
73	ZNF660	-0.04
74	ZNF660	0.17
75	ZNF660	-0.56
76	ZNF660	1.69
77	C1QTNF5	-1.6 (active)
78	C1QTNF5	-1.12
79	C1QTNF5	-1.02
80	C1QTNF5	-0.38
81	WDR83OS	1.79
82	WDR83OS	1.94
83	WDR83OS	1.43
84	WDR83OS	0.87
85	SAG	-0.59
86	SAG	-0.54
87	SAG	-0.72
88	SAG	-0.68
89	CCDC121	-1.96 (active)
90	CCDC121	-0.87
91	CCDC121	-1.6 (active)
92	CCDC121	-1.35
93	TMEM74B	-0.46
94	TMEM74B	0.32
95	TMEM74B	-0.39
96	TMEM74B	0
97	MRPL1	1.09
98	MRPL1	0.04
99	MRPL1	-0.7
100	MRPL1	1
101	SLC37A1	-0.91
102	SLC37A1	0.34
103	SLC37A1	-0.67
104	SLC37A1	1.45
105	FUT2	-1.69 (active)
106	FUT2	-1.16
107	FUT2	-1.75 (active)
108	FUT2	-0.8
109	RELT	3.77 (active)
110	RELT	2.65
111	RELT	4.31 (active)
112	RELT	2.78

Laid out differently: entries from further up.
{"Target gene": "KLF12", "TNF reporter robust z-score": "3.31 (active)"}
{"Target gene": "KLF12", "TNF reporter robust z-score": "5.09 (active)"}
{"Target gene": "KLF12", "TNF reporter robust z-score": 2.19}
{"Target gene": "KLF12", "TNF reporter robust z-score": "3.16 (active)"}
{"Target gene": "RPL7A", "TNF reporter robust z-score": 1.34}
{"Target gene": "RPL7A", "TNF reporter robust z-score": 0.95}
{"Target gene": "RPL7A", "TNF reporter robust z-score": 0.25}
